Results are given in words; binding and its absence hold for the method and conditions named. In cells and extracts the contact can be indirect. Some binding calls cover weakened binding; strength is not graded here. Tags and fused reporters may be left off the sequences shown.
T1: GST-CycA (Cyclin A) (UniProt P14785)
T1 sequence: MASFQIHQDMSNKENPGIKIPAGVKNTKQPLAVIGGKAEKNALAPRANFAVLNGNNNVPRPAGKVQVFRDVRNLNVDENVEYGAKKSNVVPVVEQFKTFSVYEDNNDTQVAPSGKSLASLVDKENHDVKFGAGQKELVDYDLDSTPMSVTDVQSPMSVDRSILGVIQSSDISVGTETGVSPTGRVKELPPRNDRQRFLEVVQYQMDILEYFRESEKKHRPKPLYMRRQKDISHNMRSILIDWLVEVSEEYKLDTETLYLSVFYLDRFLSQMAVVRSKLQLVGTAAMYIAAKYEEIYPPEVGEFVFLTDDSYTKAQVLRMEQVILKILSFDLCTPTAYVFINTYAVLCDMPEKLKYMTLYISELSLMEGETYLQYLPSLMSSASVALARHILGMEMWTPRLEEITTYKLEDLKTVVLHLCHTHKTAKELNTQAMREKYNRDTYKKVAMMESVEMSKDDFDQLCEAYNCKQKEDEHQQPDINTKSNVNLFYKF

T2: GST-tagged Mtrm (Matrimony) (Drosophila melanogaster, UniProt Q23973 1-217)
T2 construct: mtrm cDNA LD47919 cloned into pGEX6p-1; also called GST-Mtrm; source: expressed and purified from bacteria
T2 sequence (looked up): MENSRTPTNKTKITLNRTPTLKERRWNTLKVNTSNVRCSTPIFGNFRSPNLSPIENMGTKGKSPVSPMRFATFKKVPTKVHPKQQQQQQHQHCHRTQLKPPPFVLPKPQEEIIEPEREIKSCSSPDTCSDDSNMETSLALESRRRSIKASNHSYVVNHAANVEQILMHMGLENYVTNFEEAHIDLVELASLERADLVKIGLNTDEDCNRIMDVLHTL

B1: 6×Myc-Cortex (full length), in vitro translated (natural protein, Drosophila melanogaster, UniProt Q960N3 1-483, looked up)
chain: MFVEMSVCDSPNKNSKLDKKSLTPFKKVRRKNWKQEAAYKSDTSKGQEVSYVGERFIPNRFERENIEFNLKYIGKRKERDILETGVTLTASYWRQSGFISNINRTFGIGERRLFQFSSQQGTRSRVVDNDSADSDWPCNPRARPYAIQNATHEMPGICSPVDYNMMDWSSGGMVAMSSGQDVMLWRNLDESTMVFSVESPTSLKYSPDGKHLAIGCMDRNYPVLDLWEVRSPTEFLVSYRKLFFKSMGYISCIEWSHDGKEVICGTQCGVIIVLAMPTLNTLMQLREHRHTVKKMKFAPTHKYFASSDTDGKIFIFDAVLKVRLLKLDGRSIVFDWHPWTGEDLAVAERSPASIFIFNIPRRQFVASYRRRDDRIVIKTLTYSKITGELLVNVIRRDDADLAVCEILVLASLNRVVDLMSHQDRGTLFLMWNPDGTKIATGGLDDTFSLWNFFPTYKREAILRKQEQKAKDKCSSLSLYKGIR
notes: 6×myc-cort cDNA cloned into pOT2; also called Myc-tagged Cort; source: in vitro translated (TnT T7 Coupled Reticulocyte Lysate System, rabbit reticulocyte lysate)
B2: 6×Myc-CortexΔWD40 (AA 1–148 of Cortex), in vitro translated (domain or fragment, UniProt Q960N3 1-148)
chain: MFVEMSVCDSPNKNSKLDKKSLTPFKKVRRKNWKQEAAYKSDTSKGQEVSYVGERFIPNRFERENIEFNLKYIGKRKERDILETGVTLTASYWRQSGFISNINRTFGIGERRLFQFSSQQGTRSRVVDNDSADSDWPCNPRARPYAIQ
B3: 6×Myc-Fzy/Cdc20, in vitro translated (natural protein, Drosophila melanogaster, UniProt Q24044 1-526, looked up)
chain: MSQFNFVSDLQNALIMDGETRGPAPRWKKKLEASLNGSVNTTRSVLSVSYNTSFSGVQAPTKTPGKSSEGKTKKSNTTPSKTPGGGDRFIPNRAATNFELAHFLVNKDSGDKSDEENDKATSSNSNESNVQASAHKGDRQKLISEVAQVGDSKGGRILCYQNKAPAAPETHNNPLKVVYSIKTPISTKSGSRYIPTTSERILDAPDFINDYYLNLMDWSADNIVAVALGSCVYLWNAQTGNIEQLTEFEEGDYAGSLSWIQEGQILAIGNSTGAVELWDCSKVKRLRVMDGHSARVGSLAWNSFLVSSGSRDGTIVHHDVRAREHKLSTLSGHTQEVCGLKWSTDFKYLASGGNDNLVNVWSAASGGVGTATDPLHKFNDHQAAVRALAWCPWQPSTLASGGGTADRCIKFWNVNNGTLMKSVDSKSQVCSLLFSRHYKELISAHGFANNQLTIWKYPTMVKQADLTGHTSRVLQMAMSPDGSTVISAGADETLRLWNCFAPDPLASKKAVSTSKGKQSVFRQSIR
notes: 6×myc-fzy/cdc20 cDNA cloned into pOT2; also called Myc-tagged Fzy/Cdc20; Fizzy; source: in vitro translated (TnT T7 Coupled Reticulocyte Lysate System, rabbit reticulocyte lysate)

Key:
GST-CycA (Cyclin A) = target: T1, GST-CycA (Cyclin A); test: pull-down; purified GST-tagged protein on beads incubated with 5 µl in vitro translation reaction (reticulocyte lysate) in 500 µl IP buffer, 2 h at 4°C; 3 washes; Western blot with anti-Myc 9E10; only the target purified
[1] = target: T2, GST-tagged Mtrm (Matrimony); test: as above

binding (GST-CycA (Cyclin A))	binding [1]	Binder
binds	binds	B1
–	binds	B2
binds	–	B3
